These are yes or no findings as the source states them, for the method shown. In cells and extracts the contact can be indirect. Some results given as binding are weak or reduced against the parent protein; the word gives no strength. Where a sequence is shown, tags or fusion partners need not be part of it.
Target: T1, mATGL_FL_flag (mouse adipose triglyceride lipase, full length) (mouse) (UniProt Q8BJ56)
T1 sequence: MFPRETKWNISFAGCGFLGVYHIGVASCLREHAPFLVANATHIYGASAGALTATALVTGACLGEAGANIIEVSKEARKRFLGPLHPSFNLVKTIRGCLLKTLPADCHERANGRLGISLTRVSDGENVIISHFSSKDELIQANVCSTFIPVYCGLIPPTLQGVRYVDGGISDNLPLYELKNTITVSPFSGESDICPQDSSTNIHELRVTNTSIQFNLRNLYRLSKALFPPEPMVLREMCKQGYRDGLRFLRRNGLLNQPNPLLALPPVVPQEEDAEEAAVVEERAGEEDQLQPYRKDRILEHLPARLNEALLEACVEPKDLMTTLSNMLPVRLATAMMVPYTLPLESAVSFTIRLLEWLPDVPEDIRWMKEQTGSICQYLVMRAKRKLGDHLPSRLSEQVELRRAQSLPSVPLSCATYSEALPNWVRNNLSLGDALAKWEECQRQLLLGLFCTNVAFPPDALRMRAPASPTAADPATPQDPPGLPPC
Assay: co-IP; 350 μg HEK293 cell lysate with anti-Flag M2 agarose beads overnight at 4°C; 50 mM Tris-HCl pH 7.4, 150 mM NaCl, 1 mM EDTA, 1% NP40; blots with anti-Flag and Penta His antibodies

B1: 6XHis-smt3-TEV-hHILPDA (human hypoxia-inducible lipid droplet-associated protein, full length) (natural protein, UniProt Q9Y5L2 1-63, looked up)
chain: MKHVLNLYLLGVVLTLLSIFVRVMESLEGLLESPSPGTSWTTRSQLANTEPTKGLPDHPSRSM
notes: human HILPDA (Hig-2), 63 amino acids, construct hHILPDA_1-63 in a modified pSUMO vector with 6XHis tag and TEV site; The fusion protein (22 kDa) was used without removal of smt3; a TEV site lies between smt3 and HILPDA; also called smt3-HILPDA fusion protein; source: E. coli BL21-CodonPlus (DE3)-RIL, purified (HisTrap FF, Superdex 200); not shown: smt3, N-terminal, kept
For B1, the binding was “binds”.

Reference: article PMC5832925, “Hypoxia-inducible lipid droplet-associated protein inhibits adipose triglyceride lipase” (Journal of Lipid Research, 2018)
